The whole screen tested about 300,000 compounds, of which about 5,400 (1.8%) were called active. This list was built around the results that the source calls inconclusive (neither active nor inactive); the mix of calls is not that of the screen. Calls follow the shape of the full dose curve; tested in HEK293 cells. A potency beside an inconclusive call is a rough fit, not a confirmed value.
Experiment: qHTS for inhibitors of binding or entry into cells for Marburg Virus
Conditions: Marburg virus pseudotyped entry inhibition, cell reporter; activity change, negative = inhibition: at 37.8 µM (top of the series) unless noted
% is scaled to controls: 0 for no effect and ±100 for the full control effect; potency is read from the fitted curve at half-maximal effect.

Compound	Potency	activity change, negative = inhibition
O=C(Nc1nc2ccccc2n1CCN1CCOCC1)c1ccc(Cn2cc([N+](=O)[O-])cn2)o1	inconclusive: 35.5 µM [inhibitor, single point]	
Cn1nnnc1SCCNCc1ccc(OCc2ccccc2Cl)cc1	inconclusive: 12.6 µM [inhibitor, partial curve, poor fit]	
Cn1ccnc1Sc1cc(NCCCO)c([N+](=O)[O-])c2nonc12		inconclusive: 4.42% [activator]
COc1ccc(/C=N/NC(=O)c2ccc(F)cc2)cc1CN1CCc2cc(OC)c(OC)cc2C1C (stereo unspecified)	inconclusive: 35.5 µM [inhibitor, partial curve, poor fit]	
COc1ccccc1NC(=O)OC[C@@H]1CSCCS(=O)(=O)N1	inconclusive: 9.95 µM [activator, partial curve, poor fit]	
OC(COC(c1ccccc1)c1ccccc1)CN1CCN(c2ccccn2)CC1 (stereo unspecified)	inconclusive: 15.8 µM [inhibitor, partial curve, poor fit]	
Cc1ccc(NC(=O)Cn2nnc3ccccc3c2=O)cc1C	inactive	
Cc1ccc(C)c(Oc2cc(NC(=O)CCCn3nc(C)c([N+](=O)[O-])c3C)cc([N+](=O)[O-])c2)c1	inconclusive: 14.1 µM [inhibitor, single point]	
O=C(NC1CCCCC1)N1CCSC1=Nc1ccccc1	inconclusive: 6.51 µM [inhibitor, full curve]	
CCN(CC)S(=O)(=O)c1cc(NC(=O)COc2ccc(C#N)cc2OC)ccc1C	inconclusive: 20.6 µM [inhibitor, single point]	
CCn1c(SCC(=O)N2CCCCCC2)nc2c(c1=O)SCC2	inactive	
CC(=NCCN1CCCCC1)c1c(O)[nH]c(=O)[nH]c1=O	inactive	
O=C(NC1CCCCCCC1)c1ccccc1-c1ccccc1	inactive	
CCOC(=O)N1CCC(NC(=O)CS(=O)(=O)Cc2nc(-c3ccccc3C)oc2C)CC1	inactive	
CC(C(=O)Nc1ccccc1-c1ccccc1)N1CCN(S(=O)(=O)c2ccccc2)CC1 (stereo unspecified)	inconclusive: 15.8 µM [inhibitor, single point]	
CCC[C@@H]1Cc2c(sc3ncnc(N)c23)CO1	inactive	
O=C(O)C1C2C=CC(C2)C1C(=O)OCc1ccccc1 (stereo unspecified)	inconclusive: 3.98 µM [activator, single point]	
CC(C)(C)NC(=O)CCCCCCCC(=O)NC(C)(C)C	inactive	
O=C(c1ccccc1Br)N1CCN(c2ccccc2)CC1	inconclusive: 29.1 µM [activator, single point]	
COc1cc(/C=C/C(=O)NC(C)C)ccc1OCc1ccccc1	inconclusive: 22.4 µM [inhibitor, single point]	
NC(=O)C1CCN(C2CC(=O)N(Cc3cccs3)C2=O)CC1 (stereo unspecified)	inactive	
Brc1ccc(C=Nc2ccc(Nc3ccccc3)cc2)s1	inconclusive: 8.91 µM [inhibitor, partial curve, poor fit]	
Cc1occc1C(=O)Nc1cc(C(C)(C)C)on1	inactive	

Compound	Potency	activity change, negative = inhibition
Cc1cc(C)n(-c2ccc(NC(=O)C3CCCCN3Cc3cccc4c3OCO4)cc2)n1 (stereo unspecified)	inconclusive: 35.5 µM [inhibitor, single point]	
O=C(N/N=C/C1CC2CCC1C2)c1c[nH]c2ccccc12 (stereo unspecified)	inactive	
CCNc1nc(NCC)nc(SCCOc2ccc(C)cc2)n1	active: 15.8 µM	
COc1ccccc1NC(=O)c1ccc(NC(=O)COC(=O)CCC2CCCC2)cc1	inconclusive: 0.411 µM [inhibitor, partial curve, poor fit]	
COc1ccc(OC)c(C(C[N+](=O)[O-])c2c(C)cc3ccccn23)c1 (stereo unspecified)	inconclusive: 22.4 µM [inhibitor, single point]	
Cc1ccc(C(=O)Nc2nnc(C3=COCCO3)o2)cc1C	inconclusive: 3.98 µM [inhibitor, single point]	
COc1ccc(N2C(=O)C(Cl)=C(N3CCCC3)C2=O)cc1	inconclusive: 5.8 µM [inhibitor, single point]	
CCC(=O)c1ccc(OCC(O)Cn2c(C)nc3ccccc32)cc1 (stereo unspecified)	active: 6.31 µM	
COc1ccc2[nH]c(C)c(CCNC(=S)Nc3cccc(C)c3)c2c1	inconclusive: 9.2 µM [inhibitor, single point]	
Cc1cccc(N(C)C(CNS(=O)(=O)c2ccccc2)c2ccccc2)c1 (stereo unspecified)	inconclusive: 31.6 µM [inhibitor, partial curve, poor fit]	
Brc1ccc(OCc2ccccc2)c(CNCc2ccncc2)c1	inactive	
COc1ccc(/C=N/NC(=O)CCn2cnc(-c3ccccc3)c2-c2ccccc2)cc1OC	inconclusive: 7.08 µM [inhibitor, full curve]	
Nc1c([N+](=O)[O-])cnnc1-c1ccccc1	inconclusive: 6.31 µM [inhibitor, single point]	
Cc1ccc(S(=O)(=O)NCCC(=O)Nc2ccc3c(c2)OCO3)cc1	inconclusive: 0.562 µM [activator, full curve, poor fit]	
S=C(Nc1ccc(Cl)cc1Cl)N1CCCCC1	inconclusive: 0.0891 µM [activator, full curve, poor fit]	
COc1ccc(/C=N/NC(=O)c2ccncc2)cc1CN1CCOCC1	inactive	
O=C(COC(=O)CCC(=O)c1ccc(F)cc1)NCCc1ccccc1	inconclusive: 3.16 µM [inhibitor, single point]	
CSC1=NP(=S)(SC)N(C)c2nc3n(c21)CCC3 (stereo unspecified)	inconclusive: 0.708 µM [inhibitor, partial curve, poor fit]	
COc1ccccc1-c1nc(C#N)c(N2CCC(Cc3ccccc3)CC2)o1	inactive	
CCOc1nc(SCCOc2ccc(Cl)cc2Cl)nc(N(C)C)n1	inconclusive: 35.5 µM [inhibitor, single point]	
CCNC(=S)N/N=C/c1sc(N2CCCCC2)nc1-c1cccs1	inactive	
COc1ccccc1-n1ccnc1SCC(=O)NC1CCCC1	inactive	
COc1ccc(CCNC(=O)CCCCn2c(=O)c3ccccc3n(CC(=O)Nc3ccc(C)cc3C)c2=O)cc1OC	inconclusive: 1.26 µM [inhibitor, full curve, poor fit]	

3 entries out of the list, sorted by molecular weight, ascending.
Compound	Potency	activity change, negative = inhibition
COc1ccccc1-c1nc(C#N)c(N2CCC(Cc3ccccc3)CC2)o1	inactive	
COc1ccccc1NC(=O)c1ccc(NC(=O)COC(=O)CCC2CCCC2)cc1	inconclusive: 0.411 µM [inhibitor, partial curve, poor fit]	
COc1ccc(/C=N/NC(=O)CCn2cnc(-c3ccccc3)c2-c2ccccc2)cc1OC	inconclusive: 7.08 µM [inhibitor, full curve]	

— PubChem BioAssay AID540276 (National Center for Advancing Translational Sciences (NCATS), 2011)
